Measurements reported in US11725020B2, “Prodrugs of a CDK inhibitor for treating cancers” (priority 2019, dated 2023).
Some entries share one result that the patent states for a list of compounds.

Assay: Toxicity study in mice: toxicokinetics, plasma AT7519 concentration
Assay type: in vivo, Male mice (BABL/c)
Details: compound 11 0.062 mmol/kg, compound 12 0.124 mmol/kg
Procedure: Male mice (BABL/c) of 20 to 22 g were maintained under standard conditions and randomized into groups. […] Doses were calculated and expressed in mmol/kg-body weight, and drug tolerability, pharmacokinetics, and body weight effect were assessed.
Blood samples were collected at 2 min, 10 min, 1 h, and 4 h. Concentration of T7519 was analyzed in each sample using LC-MS/MS method. The results are summarized in Table 3, and the concentration-time curves are illustrated in FIG. 1.

COC(=O)[C@H](C)NP(=O)(Oc1ccccc1)N1CCC(NC(=O)c2n[nH]cc2NC(=O)c2c(Cl)cccc2Cl)CC1 (stereo partly drawn) [Compound 12, N-((4-(4-(2,6-dichlorobenzamido)-1H-pyrazole-3-carboxamido)-1-piperidinyl)(phenoxy)phosphinyl)-L-alanine methyl Ester]
time to conversion to AT7519 after intravenous injection: < 2 min
